Article PMC7312435, “Direct inhibition of the TLR4/MyD88 pathway by geniposide suppresses HIF‐1α‐independent VEGF expression and angiogenesis in hepatocellular carcinoma” (British Journal of Pharmacology, 2020)
These are yes or no findings as the source states them, for the method shown. Binding seen in cells or lysates may run through a third protein. Some results given as binding are weak or reduced against the parent protein; the word gives no strength.

By UniProt entry, the sequences of proteins in these tests, tags left out. Residues count along the entry.
UniProt O00206, residues 24-839: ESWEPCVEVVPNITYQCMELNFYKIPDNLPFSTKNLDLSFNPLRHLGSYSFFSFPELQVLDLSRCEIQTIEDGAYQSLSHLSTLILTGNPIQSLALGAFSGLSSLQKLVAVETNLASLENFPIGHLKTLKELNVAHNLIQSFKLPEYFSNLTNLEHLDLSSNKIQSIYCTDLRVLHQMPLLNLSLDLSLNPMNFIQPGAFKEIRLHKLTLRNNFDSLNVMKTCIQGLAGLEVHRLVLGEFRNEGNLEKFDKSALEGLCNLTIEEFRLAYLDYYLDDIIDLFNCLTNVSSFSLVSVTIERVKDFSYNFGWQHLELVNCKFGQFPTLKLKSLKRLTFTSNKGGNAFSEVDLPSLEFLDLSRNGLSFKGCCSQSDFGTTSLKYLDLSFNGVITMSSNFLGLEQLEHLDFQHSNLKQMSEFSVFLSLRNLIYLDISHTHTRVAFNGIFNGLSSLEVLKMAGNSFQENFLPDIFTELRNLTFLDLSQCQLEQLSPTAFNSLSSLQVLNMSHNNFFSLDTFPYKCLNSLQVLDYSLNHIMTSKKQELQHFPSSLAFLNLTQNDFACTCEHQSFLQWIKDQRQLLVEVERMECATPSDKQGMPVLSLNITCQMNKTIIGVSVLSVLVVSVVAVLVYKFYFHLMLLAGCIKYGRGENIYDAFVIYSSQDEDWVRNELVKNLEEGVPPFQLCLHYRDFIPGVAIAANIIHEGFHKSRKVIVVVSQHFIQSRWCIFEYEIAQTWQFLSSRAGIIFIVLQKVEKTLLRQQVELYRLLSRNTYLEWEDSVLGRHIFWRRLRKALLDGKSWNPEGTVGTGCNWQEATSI

Molecular target: toll-like receptor 4 (human (endogenous in HCC cells)) (UniProt O00206)
Experiment: co-IP; Dynabeads Co-immunoprecipitation Kit; cells lysed in NP-40 cell lysis buffer after treatments (geniposide, LPS); antibody covalently coupled to Dynabeads; SDS-PAGE and immunoblot; which of the two proteins was precipitated is not told

binding: binds
B1: MD2, also known as lymphocyte antigen 96 (protein, UniProt Q9Y6Y9 19-160)
chain: QKQYWVCNSSDASISYTYCDKMQYPISINVNPCIELKRSKGLLHIFYIPRRDLKQLYFNLYITVNTMNLPKRKEVICRGSDDDYSFCRALKGETVNTTISFSFKGIKFSKGKYKCVVEAISGSPEEMLFCLEFVILHQPNSN
